From paper PMC6873818
No constants are given. Whether binding was seen depends on the method and setting. Some binding calls cover weakened binding; strength is not graded here. Each block holds one binder with its values, some of them ahead of it.

How the values were obtained:
[1] = biological target: T1, DRG1 (human (endogenous in HEK293T)) (UniProt Q9Y295); assay: SEC; DIF-FRAC RNase A-treated sample (co-fractionation mass spectrometry): clarified HEK293T lysate with RNase A (80 ug, 30 min, room temperature), native SEC on BioSep-SEC-s4000 in PBS pH 7.2, 50 fractions, proteins of each fraction identified by LC-MS/MS; co-elution of elution profiles
T1 sequence: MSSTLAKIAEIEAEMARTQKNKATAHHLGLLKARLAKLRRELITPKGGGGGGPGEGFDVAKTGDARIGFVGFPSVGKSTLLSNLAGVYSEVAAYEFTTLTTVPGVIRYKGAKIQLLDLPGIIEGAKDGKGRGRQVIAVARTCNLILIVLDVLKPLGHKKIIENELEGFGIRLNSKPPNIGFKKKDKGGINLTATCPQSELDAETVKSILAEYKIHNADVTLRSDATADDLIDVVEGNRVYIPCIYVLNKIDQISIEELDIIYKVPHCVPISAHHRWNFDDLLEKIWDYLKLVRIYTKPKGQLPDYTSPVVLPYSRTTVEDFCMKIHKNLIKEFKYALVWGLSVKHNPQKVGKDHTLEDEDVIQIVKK

[2] = biological target: T1, DRG1 (human (endogenous in HEK293T)); assay: SEC; DIF-FRAC control sample (co-fractionation mass spectrometry): clarified HEK293T lysate without RNase A, native SEC on BioSep-SEC-s4000 in PBS pH 7.2, 50 fractions, proteins of each fraction identified by LC-MS/MS; co-elution of elution profiles
[3] = biological target: T2, Racgap1 (mouse (endogenous in J1 ES cells)) (UniProt Q9WVM1); assay: SEC; DIF-FRAC control sample: mouse J1 ES cell lysate without RNase A, native SEC on BioSep-SEC-s4000 in PBS pH 7.2, fractions by LC-MS/MS; co-elution of elution profiles
T2 sequence: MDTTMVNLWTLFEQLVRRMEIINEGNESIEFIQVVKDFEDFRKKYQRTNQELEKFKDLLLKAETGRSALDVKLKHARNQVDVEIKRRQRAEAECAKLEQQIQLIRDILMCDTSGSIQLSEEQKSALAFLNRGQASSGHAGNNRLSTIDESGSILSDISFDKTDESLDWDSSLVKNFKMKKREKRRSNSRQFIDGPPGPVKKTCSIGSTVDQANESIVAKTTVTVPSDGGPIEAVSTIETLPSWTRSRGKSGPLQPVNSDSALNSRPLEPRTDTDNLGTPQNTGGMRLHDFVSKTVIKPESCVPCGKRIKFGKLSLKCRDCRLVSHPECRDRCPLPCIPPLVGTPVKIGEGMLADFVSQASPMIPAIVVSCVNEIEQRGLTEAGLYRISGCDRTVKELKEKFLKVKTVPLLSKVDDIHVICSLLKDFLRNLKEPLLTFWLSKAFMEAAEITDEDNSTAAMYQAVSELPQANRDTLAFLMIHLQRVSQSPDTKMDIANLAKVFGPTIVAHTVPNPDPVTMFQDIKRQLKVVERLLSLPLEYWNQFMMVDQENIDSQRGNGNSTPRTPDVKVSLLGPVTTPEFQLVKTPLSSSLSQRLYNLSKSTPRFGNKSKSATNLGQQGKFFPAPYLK

- binding [1]: binds
B1: LRRC41 (protein, UniProt Q15345 1-812)
chain: MAAPEAWRARSCWFCEVAAATTMEATSREAAPAKSSASGPNAPPALFELCGRAVSAHMGVLESGVWALPGPILQSILPLLNIYYLERIEETALKKGLSTQAIWRRLWDELMKTRPSSLESVTCWRAKFMEAFFSHVLRGTIDVSSDRRLCDQRFSPLLHSSRHVRQLTICNMLQGATELVAEPNRRVLETLASSLHTLKFRHLLFSDVAAQQSLRQLLHQLIHHGAVSQVSLYSWPVPESALFILILTMSAGFWQPGPGGPPCRLCGEASRGRAPSRDEGSLLLGSRRPRRDAAERCAAALMASRRKSEAKQMPRAAPATRVTRRSTQESLTAGGTDLKRELHPPATSHEAPGTKRSPSAPAATSSASSSTSSYKRAPASSAPQPKPLKRFKRAAGKKGARTRQGPGAESEDLYDFVFIVAGEKEDGEEMEIGEVACGALDGSDPSCLGLPALEASQRFRSISTLELFTVPLSTEAALTLCHLLSSWVSLESLTLSYNGLGSNIFRLLDSLRALSGQAGCRLRALHLSDLFSPLPILELTRAIVRALPLLRVLSIRVDHPSQRDNPGVPGNAGPPSHIIGDEEIPENCLEQLEMGFPRGAQPAPLLCSVLKASGSLQQLSLDSATFASPQDFGLVLQTLKEYNLALKRLSFHDMNLADCQSEVLFLLQNLTLQEITFSFCRLFEKRPAQFLPEMVAAMKGNSTLKGLRLPGNRLGNAGLLALADVFSEDSSSSLCQLDISSNCIKPDGLLEFAKRLERWGRGAFGHLRLFQNWLDQDAVTAREAIRRLRATCHVVSDSWDSSQAFADYVSTM
- binding [2]: no binding (condition: control lysate, RNA not degraded)

- binding [3]: binds
B2: Kif23 (protein, UniProt E9Q5G3 1-953)
chain: MKSAKAKTVRKPVIKKGSQTNLKDPVGVYCRVRPLSFPDQECCVEVINSTTLQLHTPEGYRLNRNGDYKETQYSFKRVFGTHTTQKELFDVVANPLVDDLIHGKNGLLFTYGVTGSGKTYTMTGSPGSGGLLPRCLNMIFNSIGSFQAKRYVFKSNDRNSMEIQCEVDALLERQKREALPIPKTPSSKRQADPEFADMINVQEFCKAEEVDEDSVYGVFVSYIEIYNNYIYDLLEEVQFDPIKPKLPQSKTLREDKNHNMYVAGCTEVEVKSTEEAFEVFWRGQKKRRIANTHLNRESSRSHSVFSIKLVQAPLDADGDNVLQEKEQITISQLSLVDLAGSERTNRTKAEGNRLREAGNINQSLMTLRTCMEVLRENQTYGTNKMVPYRDSKLTHLFKNYFDGEGKVRMIVCVNPKAEDYEESLQVMRFAEVTQEVEVARPVDKVICGLTPGRRYRNLPRGGPVGDEPLVPEVILQSFPPLPPCKLLDINDEETLPKLADTLEKRHHLRQLMTEDLNKKCLAFKALLKEFDNSLSNKENYVQEKLNEREKVISGQKLEIERLEKKNKTLEYKIEILEKTTTIYEEDKRNLQQELESQNQKLQRQFSDKRRLEARLQGMVTETSMKWQKECERRVAATQLEMQNKLWVKDEKLKQLKAIVTEPKPEKPERPSRERDREKIIPRSVSPSPLPLSSNNIAQISNGQQLMSQPQLHRRSNSCSSISVASCISEWEQKLSPFSTPVNVTSLARHRQQEPGQSKTCIVSDRRRGMCWTEGREMVPTFSSEIGVEEDHCRRNTPIPVRHRRSRSAGSRWVDHKPASNVQTETVMQPHVPHAITVSVANEKALAKCEKYMLTHQELASDGEIQTKVIKGDVYKTRGGGQSVQFTDIETLKQELPTGSRKRRSSTLAPAQPDGTESEWTDVETRCSVAVEMRAGSQLGPGYQHHAQPKRKKP
